Values of other authors, collected in patent EP1964555A1, “PHARMACEUTICAL CO[…] INHIBIT THE REUPTAKE OF NORADRENALINE, DOPAMINE AND SEROTONIN, WHICH ARE COMBINED WITH AN AMINO ACID FOR THE TREATMENT OF OBESITY AND OVERWEIGHT” (Espinosa Abdala, Leopoldo de Jesús, priority 2005, dated 2007).
The name of at least one read-out is uncertain.

Conditions: with food; cited from earlier work

| Structure (SMILES) | effect of food on AUC |
| --- | --- |
| CNC(CC(C)C)C1(c2ccc(Cl)cc2)CCC1 (centres unmarked) [M1, mono-desmetilsibutramina] | not altered |
| CC(C)CC(N)C1(c2ccc(Cl)cc2)CCC1 (centres unmarked) [M2, di-desmetil-sibutramina] | not altered |
